# Where two headings read alike, the source gives them in different places.
# Details: in water
# [1] = concentration 0.02 parts per billion
# [2] = concentration 0.2 parts per billion
# [3] = concentration 20.0 parts per billion
Structure (SMILES),Odor/Taste [1],Odor/Taste [2],Odor/Taste [3]
"CCCCC[C@@H]1O[C@H]1/C=C/C=O (relative stereo) [(+), trans-4,5-epoxy-(E)-2-decenal]","no smell, no taste",mild metallic smell and taste,clear metallic and bean taste/smell
"CCCCCC1OC1/C=C/C=O (single isomer, unassigned; (-)) [(−), (−)-trans-4. 5-Epoxydec-2-enal]","faint smell, mild metallic taste",strong metallic smell/taste,strong metallic and bean taste/smell
